Source: the supplement of paper PMC12823440, “Inhibitors supercharge kinase turnover through native proteolytic circuits” (Nature, 2025)
Where a name gives a salt, the structure may show the parent alone. This is one part of the list. Hit calls seldom repeat between salt and free forms of one compound.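 In K562 cells expressing nanoluciferase-fused kinases, luminescence was recorded at 4 h intervals between 2 and 18 h, normalized as percent of control with DMSO at 100% and a positive control at 0%. A significant (2 sigma) signal drop marks a time point as decreased. The authors' rule for a hit is not shown and takes in more than the number of time points.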

These molecules were tested against FGR (UniProt P09769) (assay: number of time points (of 5) at which kinase-Nluc abundance scored as decreased, DMSO-normalised (count); higher = more persistent destabilization). Conditions: K562; 2-18 h.

SMILES | number of time points
CN1CC[C@H](c2c(O)cc(O)c3c(=O)cc(-c4ccc(C(F)(F)F)cc4Cl)oc23)[C@H]1CO [(2S,3R)-Voruciclib (hydrochloride)] (2.5 µM) | 0
CCn1nc(C2CCN(C(=O)CCO)CC2)nc1-c1cnc(N)c(-c2nnc(C(C)(C)C)o2)n1 (10 µM) | 0
O=C(O)c1ccccc1Nc1cccc(C(F)(F)F)c1 [Flufenamic acid] (10 µM) | 0
CNC(=O)c1ccc(-c2cnc3cnc(-c4ccccc4)cn23)cc1 (10 µM) | 0
Nc1cccc(S(=O)(=O)N2CCCN(S(=O)(=O)c3ccc4c(c3)OCCO4)CC2)c1 (10 µM) | 0
CC1(COc2ccc3c(c2)ncn3-c2ccc3cccc(N4CCC(N)CC4)c3n2)COC1 [Crenolanib] (2.5 µM) | 0
O=C(CCCCCn1cc(Nc2ncc(Cl)c(Nc3ccc(Cl)cc3)n2)cn1)NO (2.5 µM) | 0
CC(C)n1cnc2c(Nc3cccc(Cl)c3)nc(NCCO)nc21 (10 µM) | 0
COc1ccc(CCNc2ncc3c(=O)n(-c4cccc(F)c4)c(=O)[nH]c3n2)cc1OC (2 µM) | 0
OCCN(CCO)c1ccc(C(c2ccc(Cl)cc2)c2ccc(N(CCO)CCO)cc2)cc1 (10 µM) | 0
CSc1ccc(CN2CCCC(Nc3ccc4[nH]ncc4c3)C2)cc1 (configuration not stated) [Rho-Kinase-IN-1] (10 µM) | 0
COc1cc(C(=O)N2CCC(N3CCN(C)CC3)CC2)ccc1Nc1ncc2c(n1)N(C)c1ccccc1C(=O)N2C (10 µM) | 0
